Test results published in article PMC8797470, “Disruption of the pentraxin 3/CD44 interaction as an efficient therapy for triple‐negative breast cancers” (Clinical and Translational Medicine, 2022).

By UniProt entry, the sequences of proteins in these tests, tags left out. Where a name states a change or a piece, a line headed by the entry shows the natural chain unless it says otherwise.
UniProt P16070: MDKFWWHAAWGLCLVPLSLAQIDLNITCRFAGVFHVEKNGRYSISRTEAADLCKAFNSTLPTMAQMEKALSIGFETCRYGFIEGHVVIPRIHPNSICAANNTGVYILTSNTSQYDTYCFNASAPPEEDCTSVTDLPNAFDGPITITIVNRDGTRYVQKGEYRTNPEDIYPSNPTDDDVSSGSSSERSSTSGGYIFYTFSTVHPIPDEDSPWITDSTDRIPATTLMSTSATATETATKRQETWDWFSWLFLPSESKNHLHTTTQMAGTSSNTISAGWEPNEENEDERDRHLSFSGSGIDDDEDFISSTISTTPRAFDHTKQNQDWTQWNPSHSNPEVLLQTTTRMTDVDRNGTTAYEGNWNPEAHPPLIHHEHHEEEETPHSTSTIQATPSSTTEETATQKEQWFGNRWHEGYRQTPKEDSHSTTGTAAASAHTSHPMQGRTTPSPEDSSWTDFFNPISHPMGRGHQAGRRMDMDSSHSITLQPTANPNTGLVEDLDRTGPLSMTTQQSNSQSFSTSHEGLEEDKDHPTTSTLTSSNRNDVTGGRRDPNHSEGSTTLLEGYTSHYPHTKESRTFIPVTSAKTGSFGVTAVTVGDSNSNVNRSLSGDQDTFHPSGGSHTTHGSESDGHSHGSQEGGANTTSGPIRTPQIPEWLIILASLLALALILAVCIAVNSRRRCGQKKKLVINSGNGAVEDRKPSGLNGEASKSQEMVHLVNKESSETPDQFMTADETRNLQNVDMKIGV
UniProt P26022: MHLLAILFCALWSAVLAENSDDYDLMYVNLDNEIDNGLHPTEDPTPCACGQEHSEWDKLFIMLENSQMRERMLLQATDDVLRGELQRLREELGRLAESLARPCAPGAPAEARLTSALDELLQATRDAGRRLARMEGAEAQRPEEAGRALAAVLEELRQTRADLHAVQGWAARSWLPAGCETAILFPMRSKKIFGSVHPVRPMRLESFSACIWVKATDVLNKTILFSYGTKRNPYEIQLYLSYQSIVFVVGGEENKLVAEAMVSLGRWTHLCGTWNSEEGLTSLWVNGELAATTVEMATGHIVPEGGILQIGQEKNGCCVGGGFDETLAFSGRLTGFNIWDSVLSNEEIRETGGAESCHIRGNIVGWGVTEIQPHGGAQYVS

Experiments:
[1] = biological target: CD44 (12211-H08H; Sino Biological Inc.) (UniProt P16070); assay: ELISA; competition: wells coated with CD44; biotinylated peptides RI37 or GI40 at the indicated concentrations 2 h, washed, then 5 μg/ml HRP-conjugated PTX3 1 h at RT; TMB, OD 450 nm; both purified
[2] = biological target: CD44 (12211-H08H; Sino Biological Inc.) (UniProt P16070); assay: ELISA; wells coated with 10 μg/ml CD44; biotinylated PTX3-derived peptides (AD9, GR9, P2rdAD9, P12rdGR9 and other truncated peptides) 2 h; OD 450 nm; both purified
[3] = biological target: CD44 (12211-H08H; Sino Biological Inc.) (UniProt P16070); assay: ELISA; wells coated with 10 μg/ml CD44 in PBS pH 7.2, blocked with 3% milk; HRP-conjugated recombinant PTX3, PTX3/N, PTX3/C or PTX3NA 2 h; TMB, OD 450 nm; both purified
[4] = biological target: CD44 (12211-H08H; Sino Biological Inc.) (UniProt P16070); assay: ELISA; competition: Ab-10 or Ab-49 pre-incubated with 5 μg/ml HRP-conjugated PTX3 in PBS 2 h at RT, mixture on CD44-coated wells 1 h at RT; TMB, OD 450 nm; both purified

Substance	binding [1]	binding [3]	other results
peptide RI37 (PTX3 amino acids 200–236), biotinylated (from UniProt P26022 200-236)	binds	–	–
peptide AD9 (PTX3 amino acids 209–217), biotinylated (from UniProt P26022 209-217)	–	–	binding [2]: binds
peptide GR9 (PTX3 amino acids 352–360), biotinylated (from UniProt P26022 352-360)	–	–	binding [2]: binds
recombinant PTX3 Asn220 mutant (PTX3NA), HRP-conjugated (from UniProt P26022) (ligand)	–	binds	–
C-terminus of PTX3 (PTX3/C, amino acids 180–381), HRP-conjugated (from UniProt P26022 180-381) (domain or fragment)	–	binds	–

The next lines start with results.

binding [1]	binding [3]	Substance	other results
binds	binds	horseradish peroxidase (HRP)-conjugated recombinant PTX3 (from UniProt P26022 18-381) (ligand)	binding [4]: binds
–	no binding	N-terminus of PTX3 (PTX3/N, amino acids 19–182), HRP-conjugated (from UniProt P26022 19-182) (domain or fragment)	–
binds	–	peptide GI40 (PTX3 amino acids 320–359), biotinylated (from UniProt P26022 320-359)	–

Results are given in words; binding and its absence hold for the method and conditions named. A result given as binding can be weak or reduced; the word gives no strength.
